# Measurements taken from article PMC7590512, “Lysosomal cathepsin creates chimeric epitopes for diabetogenic CD4 T cells via transpeptidation” (The Journal of Experimental Medicine, 2020).
# Tested on: BDC-2.5 TCR
# Conditions: p1-4 fused to WSRMDQ; baculovirus DNA from enriched virus of Fig. 1 C, panel 3
row,Substance,freq (occurrence in sequencing data of BDC-2.5-enriched library)
1,LLGS,5120
2,LTSL,13607
3,NVPV,5616
4,QRCI,2606
5,SVGV,2872
